According to the supplement of paper PMC10849652:
Some of the results follow.

Sequences of proteins named here, by UniProt entry; tags and fusion partners are left off. A change or cut given only in a name is not applied to a line headed by its entry.
UniProt Q9NRF9: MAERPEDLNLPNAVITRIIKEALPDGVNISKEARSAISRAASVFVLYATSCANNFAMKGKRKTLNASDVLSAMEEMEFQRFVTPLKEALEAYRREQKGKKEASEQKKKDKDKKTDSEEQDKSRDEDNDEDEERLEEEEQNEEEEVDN
UniProt O75817: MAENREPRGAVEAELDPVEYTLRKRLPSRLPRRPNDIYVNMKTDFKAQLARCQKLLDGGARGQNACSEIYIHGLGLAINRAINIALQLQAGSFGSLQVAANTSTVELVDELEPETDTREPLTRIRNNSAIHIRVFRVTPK
UniProt Q9H9Y6, whole entry, looked up: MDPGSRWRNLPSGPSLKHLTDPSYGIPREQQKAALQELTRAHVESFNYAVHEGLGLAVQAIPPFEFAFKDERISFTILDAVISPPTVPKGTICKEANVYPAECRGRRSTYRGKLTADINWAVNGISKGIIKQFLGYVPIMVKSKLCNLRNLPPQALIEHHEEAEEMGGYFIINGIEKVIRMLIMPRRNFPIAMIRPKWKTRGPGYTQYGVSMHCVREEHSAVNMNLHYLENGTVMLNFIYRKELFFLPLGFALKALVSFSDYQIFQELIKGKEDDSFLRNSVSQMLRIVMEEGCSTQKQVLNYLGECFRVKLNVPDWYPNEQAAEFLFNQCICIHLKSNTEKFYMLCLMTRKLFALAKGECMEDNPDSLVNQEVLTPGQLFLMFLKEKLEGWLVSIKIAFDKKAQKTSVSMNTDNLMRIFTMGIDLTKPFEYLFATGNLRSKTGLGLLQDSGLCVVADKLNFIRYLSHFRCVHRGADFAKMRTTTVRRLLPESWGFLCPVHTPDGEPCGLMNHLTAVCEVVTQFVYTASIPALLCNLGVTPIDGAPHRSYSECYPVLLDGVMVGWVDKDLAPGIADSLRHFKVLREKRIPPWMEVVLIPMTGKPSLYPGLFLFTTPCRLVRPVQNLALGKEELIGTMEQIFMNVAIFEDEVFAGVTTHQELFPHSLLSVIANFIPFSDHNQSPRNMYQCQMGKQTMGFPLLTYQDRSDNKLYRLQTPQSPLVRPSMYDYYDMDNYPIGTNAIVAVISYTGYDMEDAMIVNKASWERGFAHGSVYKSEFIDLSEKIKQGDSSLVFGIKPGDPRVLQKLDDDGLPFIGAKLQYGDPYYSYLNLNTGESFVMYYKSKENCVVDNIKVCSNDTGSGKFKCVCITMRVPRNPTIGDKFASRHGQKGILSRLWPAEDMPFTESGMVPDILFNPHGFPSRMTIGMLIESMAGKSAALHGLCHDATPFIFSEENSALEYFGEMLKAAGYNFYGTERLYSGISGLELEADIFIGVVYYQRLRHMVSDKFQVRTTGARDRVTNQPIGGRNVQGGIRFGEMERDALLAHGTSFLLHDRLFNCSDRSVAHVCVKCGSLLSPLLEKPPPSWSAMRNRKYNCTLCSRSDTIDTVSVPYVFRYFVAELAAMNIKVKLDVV
UniProt Q9H2U2: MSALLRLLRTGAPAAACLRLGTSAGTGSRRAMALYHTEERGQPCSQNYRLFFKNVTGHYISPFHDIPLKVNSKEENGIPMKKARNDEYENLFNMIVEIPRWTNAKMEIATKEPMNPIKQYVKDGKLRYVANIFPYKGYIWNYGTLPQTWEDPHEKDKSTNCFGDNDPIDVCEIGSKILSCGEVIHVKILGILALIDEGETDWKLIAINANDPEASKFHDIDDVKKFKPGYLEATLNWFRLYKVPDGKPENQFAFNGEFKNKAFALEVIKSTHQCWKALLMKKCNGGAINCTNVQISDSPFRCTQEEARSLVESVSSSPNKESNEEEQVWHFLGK
UniProt P54098: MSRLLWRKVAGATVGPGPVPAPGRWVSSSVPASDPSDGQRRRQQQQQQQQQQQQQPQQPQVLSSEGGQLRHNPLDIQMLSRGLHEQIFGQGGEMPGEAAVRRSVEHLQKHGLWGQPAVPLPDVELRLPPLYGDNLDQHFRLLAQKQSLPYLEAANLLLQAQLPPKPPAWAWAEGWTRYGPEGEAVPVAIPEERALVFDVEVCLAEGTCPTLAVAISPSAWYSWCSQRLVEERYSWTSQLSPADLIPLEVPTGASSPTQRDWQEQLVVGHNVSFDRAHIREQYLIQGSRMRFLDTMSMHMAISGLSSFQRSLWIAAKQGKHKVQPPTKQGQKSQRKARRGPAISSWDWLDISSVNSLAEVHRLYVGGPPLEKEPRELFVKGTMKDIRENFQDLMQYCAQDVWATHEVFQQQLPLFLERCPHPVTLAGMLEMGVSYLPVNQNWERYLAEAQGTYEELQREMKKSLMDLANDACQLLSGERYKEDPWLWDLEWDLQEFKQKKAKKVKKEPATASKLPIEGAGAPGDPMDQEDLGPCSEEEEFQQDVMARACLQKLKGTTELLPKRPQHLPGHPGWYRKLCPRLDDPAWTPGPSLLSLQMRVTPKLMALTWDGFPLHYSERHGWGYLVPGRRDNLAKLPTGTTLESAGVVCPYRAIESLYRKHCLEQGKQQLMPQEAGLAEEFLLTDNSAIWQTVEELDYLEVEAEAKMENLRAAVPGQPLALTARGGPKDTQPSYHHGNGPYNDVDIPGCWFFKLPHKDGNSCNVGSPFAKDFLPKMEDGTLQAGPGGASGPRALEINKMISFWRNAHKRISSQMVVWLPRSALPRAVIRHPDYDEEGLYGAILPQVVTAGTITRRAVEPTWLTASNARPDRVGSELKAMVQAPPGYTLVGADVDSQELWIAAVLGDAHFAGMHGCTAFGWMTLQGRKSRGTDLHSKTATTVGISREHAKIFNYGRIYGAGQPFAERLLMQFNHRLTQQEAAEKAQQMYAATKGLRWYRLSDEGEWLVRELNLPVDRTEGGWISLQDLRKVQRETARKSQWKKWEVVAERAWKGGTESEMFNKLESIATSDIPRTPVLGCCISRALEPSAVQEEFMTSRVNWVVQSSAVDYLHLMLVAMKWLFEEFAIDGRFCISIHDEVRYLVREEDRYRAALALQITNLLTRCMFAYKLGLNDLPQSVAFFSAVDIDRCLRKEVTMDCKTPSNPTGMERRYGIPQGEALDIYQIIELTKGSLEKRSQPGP
UniProt Q8TD55: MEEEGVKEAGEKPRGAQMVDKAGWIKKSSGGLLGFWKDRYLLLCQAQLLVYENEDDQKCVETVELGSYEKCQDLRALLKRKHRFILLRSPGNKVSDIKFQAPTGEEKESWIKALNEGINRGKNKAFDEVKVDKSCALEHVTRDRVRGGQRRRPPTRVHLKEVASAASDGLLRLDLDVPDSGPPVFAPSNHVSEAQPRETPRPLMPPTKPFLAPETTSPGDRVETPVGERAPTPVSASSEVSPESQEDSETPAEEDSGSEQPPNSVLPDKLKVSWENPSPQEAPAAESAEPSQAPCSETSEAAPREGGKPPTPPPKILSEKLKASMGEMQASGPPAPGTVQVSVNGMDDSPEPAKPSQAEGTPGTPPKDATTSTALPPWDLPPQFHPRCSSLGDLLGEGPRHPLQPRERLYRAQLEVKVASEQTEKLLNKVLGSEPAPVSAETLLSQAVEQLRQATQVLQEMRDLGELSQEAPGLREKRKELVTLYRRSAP
UniProt Q6P1K2: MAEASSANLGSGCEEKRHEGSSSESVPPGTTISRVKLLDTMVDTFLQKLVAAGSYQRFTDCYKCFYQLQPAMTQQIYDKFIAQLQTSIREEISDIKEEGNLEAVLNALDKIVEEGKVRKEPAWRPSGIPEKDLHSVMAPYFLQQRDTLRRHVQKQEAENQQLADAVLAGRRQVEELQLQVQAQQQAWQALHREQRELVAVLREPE
UniProt Q15181: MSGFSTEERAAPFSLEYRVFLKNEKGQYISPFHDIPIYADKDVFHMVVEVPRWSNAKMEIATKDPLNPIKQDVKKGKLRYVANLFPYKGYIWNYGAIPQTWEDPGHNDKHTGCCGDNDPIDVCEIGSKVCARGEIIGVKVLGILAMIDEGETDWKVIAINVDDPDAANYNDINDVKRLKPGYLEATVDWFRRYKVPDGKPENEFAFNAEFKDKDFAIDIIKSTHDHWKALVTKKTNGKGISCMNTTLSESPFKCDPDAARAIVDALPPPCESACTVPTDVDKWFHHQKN
UniProt Q969H6: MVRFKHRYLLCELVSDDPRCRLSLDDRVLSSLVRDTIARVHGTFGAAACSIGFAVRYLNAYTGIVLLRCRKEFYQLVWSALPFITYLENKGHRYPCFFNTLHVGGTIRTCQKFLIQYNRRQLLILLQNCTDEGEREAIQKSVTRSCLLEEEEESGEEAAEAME
UniProt Q9NQ55: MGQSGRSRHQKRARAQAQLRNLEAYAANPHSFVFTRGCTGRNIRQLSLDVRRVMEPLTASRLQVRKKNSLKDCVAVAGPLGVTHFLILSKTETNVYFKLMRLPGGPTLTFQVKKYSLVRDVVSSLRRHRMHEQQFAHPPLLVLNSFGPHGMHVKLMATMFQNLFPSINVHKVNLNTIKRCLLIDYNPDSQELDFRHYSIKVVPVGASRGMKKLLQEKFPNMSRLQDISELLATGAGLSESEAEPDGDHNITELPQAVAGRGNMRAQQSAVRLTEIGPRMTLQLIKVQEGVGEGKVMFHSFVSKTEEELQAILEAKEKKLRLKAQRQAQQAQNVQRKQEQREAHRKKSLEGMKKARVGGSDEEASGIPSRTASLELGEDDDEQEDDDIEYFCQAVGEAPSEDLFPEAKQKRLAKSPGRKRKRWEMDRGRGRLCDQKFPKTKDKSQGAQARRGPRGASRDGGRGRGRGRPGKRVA
UniProt Q8N490: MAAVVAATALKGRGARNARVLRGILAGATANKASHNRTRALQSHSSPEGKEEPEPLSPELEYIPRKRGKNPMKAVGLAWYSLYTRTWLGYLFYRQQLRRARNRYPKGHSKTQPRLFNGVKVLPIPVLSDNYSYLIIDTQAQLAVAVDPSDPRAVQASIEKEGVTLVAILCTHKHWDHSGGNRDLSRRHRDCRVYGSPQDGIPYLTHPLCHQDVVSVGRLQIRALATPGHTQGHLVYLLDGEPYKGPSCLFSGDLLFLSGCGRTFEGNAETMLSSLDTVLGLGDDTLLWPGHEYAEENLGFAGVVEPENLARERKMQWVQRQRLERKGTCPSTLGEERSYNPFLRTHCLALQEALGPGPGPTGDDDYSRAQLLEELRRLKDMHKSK
UniProt A5A3E0, whole entry, looked up: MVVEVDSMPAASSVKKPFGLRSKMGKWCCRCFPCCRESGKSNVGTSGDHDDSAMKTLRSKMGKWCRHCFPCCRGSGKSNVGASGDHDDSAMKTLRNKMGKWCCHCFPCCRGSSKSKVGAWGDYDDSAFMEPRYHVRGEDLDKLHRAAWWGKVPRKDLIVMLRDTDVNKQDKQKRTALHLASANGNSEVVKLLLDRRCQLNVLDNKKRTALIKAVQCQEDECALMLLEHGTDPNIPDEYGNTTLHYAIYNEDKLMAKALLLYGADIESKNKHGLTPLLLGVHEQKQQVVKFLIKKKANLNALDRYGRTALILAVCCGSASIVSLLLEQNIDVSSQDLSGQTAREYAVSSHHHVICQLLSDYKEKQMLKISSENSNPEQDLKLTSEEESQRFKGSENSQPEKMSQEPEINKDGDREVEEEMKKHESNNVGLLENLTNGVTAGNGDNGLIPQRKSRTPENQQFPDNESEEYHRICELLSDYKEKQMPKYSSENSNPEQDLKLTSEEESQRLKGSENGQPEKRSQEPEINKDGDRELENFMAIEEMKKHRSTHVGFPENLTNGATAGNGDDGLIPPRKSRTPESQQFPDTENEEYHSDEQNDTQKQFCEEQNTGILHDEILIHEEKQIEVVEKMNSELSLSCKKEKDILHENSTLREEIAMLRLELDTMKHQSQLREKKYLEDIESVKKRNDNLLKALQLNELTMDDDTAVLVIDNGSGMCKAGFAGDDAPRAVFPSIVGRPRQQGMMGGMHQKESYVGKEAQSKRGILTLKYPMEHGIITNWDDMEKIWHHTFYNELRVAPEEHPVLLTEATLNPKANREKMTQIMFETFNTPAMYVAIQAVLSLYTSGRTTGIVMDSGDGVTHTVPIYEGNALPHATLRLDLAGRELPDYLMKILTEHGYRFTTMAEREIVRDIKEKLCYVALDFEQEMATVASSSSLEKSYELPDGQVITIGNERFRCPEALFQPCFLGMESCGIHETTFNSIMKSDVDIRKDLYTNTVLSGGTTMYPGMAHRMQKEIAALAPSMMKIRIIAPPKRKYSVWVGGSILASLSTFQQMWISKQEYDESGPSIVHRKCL
UniProt Q99541: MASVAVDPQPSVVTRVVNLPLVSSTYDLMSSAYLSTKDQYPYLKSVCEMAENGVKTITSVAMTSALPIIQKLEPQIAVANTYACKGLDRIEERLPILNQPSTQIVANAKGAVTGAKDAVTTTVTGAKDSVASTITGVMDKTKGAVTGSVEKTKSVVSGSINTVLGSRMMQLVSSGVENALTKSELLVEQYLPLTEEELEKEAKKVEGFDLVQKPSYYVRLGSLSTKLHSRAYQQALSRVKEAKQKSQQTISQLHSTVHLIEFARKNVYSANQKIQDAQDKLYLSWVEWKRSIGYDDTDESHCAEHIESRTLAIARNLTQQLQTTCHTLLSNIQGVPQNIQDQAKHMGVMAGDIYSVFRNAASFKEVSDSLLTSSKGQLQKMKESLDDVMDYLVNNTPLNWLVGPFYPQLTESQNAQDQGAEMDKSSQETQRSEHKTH

Assays:
Experiment in all cases: log2 fold change, soluble protein after heating vs DMSO (PISA); higher = thermal stabilisation; K562 lysate, 10 uM; active = over 0.2 and 3.5 SD of the protein, either way, in both replicates (recomputed)
lapatinib = compound: CS(=O)(=O)CCNCc1ccc(-c2ccc3ncnc(Nc4ccc(OCc5cccc(F)c5)c(Cl)c4)c3c2)o1 [lapatinib]
Outline: (§1)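 K562 pellets were dounce-homogenised in PBS pH 7.4 containing 1 mM MgCl2, and the crude extract, at 1 mg/mL protein, was exposed to 10 μM compound for 30 min. Aliquots were heated for 3 min across 48°C-58°C, pooled, brought to 0.5% NP-40 at 4°C and spun at 21,000xg for 90 min, with the supernatant taken as soluble protein. TMTpro 16plex LC-MS/MS with equalised channel sums quantified that protein. Values are log-two fold changes in thermal stability relative to solvent controls, taken from duplicates.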

pictilisib = compound: CS(=O)(=O)N1CCN(Cc2cc3nc(-c4cccc5[nH]ncc45)nc(N4CCOCC4)c3s2)CC1 [pictilisib]
Outline: as §1

crizotinib = compound: C[C@@H](Oc1cc(-c2cnn(C3CCNCC3)c2)cnc1N)c1c(Cl)ccc(F)c1Cl [crizotinib]
Outline: as §1

[1] = compound: C[C@H](C1=CC=C(C=C1)C(=O)NC2=C3C=CNC3=NC=C2)N
Outline: as §1

duvelisib = compound: C[C@H](Nc1ncnc2nc[nH]c12)c1cc2cccc(Cl)c2c(=O)n1-c1ccccc1 [duvelisib]
Outline: as §1

gandotinib = compound: Cc1cc(Nc2cc(CN3CCOCC3)c3nc(C)c(Cc4ccc(Cl)cc4F)n3n2)n[nH]1 [gandotinib]
Outline: as §1

tozasertib = compound: Cc1cc(Nc2cc(N3CCN(C)CC3)nc(Sc3ccc(NC(=O)C4CC4)cc3)n2)n[nH]1 [tozasertib]
Outline: as §1

doramapimod = compound: Cc1ccc(-n2nc(C(C)(C)C)cc2NC(=O)Nc2ccc(OCCN3CCOCC3)c3ccccc23)cc1 [doramapimod]
Outline: as §1

bafetinib = compound: Cc1ccc(NC(=O)c2ccc(CN3CC[C@H](N(C)C)C3)c(C(F)(F)F)c2)cc1Nc1nccc(-c2cncnc2)n1 [bafetinib]
Outline: as §1

[2] = compound: Cc1cccc(CC(=O)N2CCc3c2ccc(-c2cn(C)c4ncnc(N)c24)c3F)n1
Outline: as §1

Target | log2 fold change (lapatinib) | log2 fold change (pictilisib) | log2 fold change (crizotinib) | log2 fold change [1] | log2 fold change (duvelisib) | log2 fold change (gandotinib) | log2 fold change (tozasertib) | log2 fold change (doramapimod) | log2 fold change (bafetinib) | log2 fold change [2]
POGK (UniProt Q9P215) | inactive: -0.055 | inactive: -0.026 | inactive: 0.022 | active: -0.384 | inactive: 0.01 | inactive: 0.095 | inactive: -0.101 | inactive: 0.111 | inactive: -0.109 | inactive: 0.142
POLE3 (UniProt Q9NRF9) | inactive: 0.012 | inactive: 0.054 | inactive: 0.049 | inactive: 0.004 | inactive: 0.013 | inactive: 0.041 | inactive: -0.038 | inactive: -0.007 | inactive: 0.034 | inactive: -0.001
POP7 (UniProt O75817) | inactive: 0.002 | inactive: -0.018 | inactive: 0.018 | inactive: 0.063 | inactive: -0.016 | inactive: 0.117 | inactive: -0.009 | inactive: 0.015 | inactive: -0.12 | inactive: 0.016
POLR1B isoform 3 (UniProt Q9H9Y6) | inactive: -0.075 | inactive: -0.037 | inactive: 0.021 | inactive: -0.107 | inactive: 0.029 | inactive: 0.013 | inactive: 0.006 | inactive: -0.018 | inactive: -0.058 | inactive: 0.041
PNPLA2 (UniProt Q96AD5) | inactive: 0.019 | inactive: -0.052 | inactive: -0.04 | inactive: -0.003 | inactive: -0.013 | inactive: -0.075 | inactive: 0.001 | inactive: -0.026 | inactive: -0.057 | inactive: 0.03
PPA2 (UniProt Q9H2U2) | inactive: -0.008 | inactive: -0.006 | inactive: 0.023 | inactive: -0.025 | inactive: -0.001 | inactive: 0.009 | inactive: -0.008 | inactive: -0.024 | inactive: 0.018 | inactive: -0.005
PPFIA1 (UniProt Q13136) | inactive: 0.017 | inactive: -0.013 | inactive: 0.024 | inactive: -0.062 | inactive: 0.028 | inactive: -0.002 | inactive: 0.022 | inactive: -0.01 | inactive: -0.051 | inactive: 0.078
POC5 (UniProt Q8NA72) | inactive: -0.133 | inactive: -0.12 | inactive: 0.02 | inactive: 0.022 | inactive: -0.041 | inactive: 0.107 | inactive: -0.086 | inactive: -0.023 | inactive: 0.051 | inactive: 0.031
POLG (UniProt P54098) | inactive: 0.127 | inactive: -0.016 | inactive: -0.143 | inactive: -0.156 | inactive: 0.077 | inactive: 0.169 | inactive: 0.053 | inactive: -0.137 | inactive: 0.015 | inactive: 0.253
PLIN3 (UniProt O60664) | inactive: 0.03 | inactive: -0.023 | inactive: 0.06 | inactive: 0.018 | inactive: 0.001 | inactive: 0.019 | inactive: 0.02 | inactive: 0.001 | inactive: 0.045 | inactive: -0.101
PLEKHO2 (UniProt Q8TD55) | inactive: 0.045 | inactive: 0.184 | inactive: 0.057 | inactive: 0.039 | inactive: 0.062 | inactive: -0.018 | inactive: -0.137 | inactive: 0.005 | inactive: -0.193 | inactive: 0.07
PML (UniProt P29590) | inactive: -0.009 | inactive: 0.046 | inactive: 0.023 | inactive: -0.008 | inactive: 0.005 | inactive: 0 | inactive: 0.035 | inactive: 0.014 | inactive: 0.049 | inactive: 0.045
PMS2 (UniProt P54278) | inactive: 0.016 | inactive: 0.021 | inactive: -0.038 | inactive: -0.036 | inactive: 0 | inactive: -0.064 | inactive: -0.014 | inactive: -0.038 | inactive: 0.021 | inactive: 0.037
PMF1 (UniProt Q6P1K2) | inactive: 0.015 | inactive: 0.032 | inactive: 0.018 | inactive: 0.117 | inactive: 0.04 | inactive: -0.062 | inactive: 0.051 | inactive: 0.026 | inactive: -0.01 | inactive: -0.111
POLA2 (UniProt Q14181) | inactive: 0.008 | inactive: -0.013 | inactive: -0.023 | inactive: 0.07 | inactive: -0.018 | inactive: -0.05 | inactive: -0.006 | inactive: 0.025 | inactive: -0.009 | inactive: -0.017
PPID (UniProt Q08752) | inactive: 0 | inactive: 0.009 | inactive: -0.013 | inactive: 0.071 | inactive: -0.016 | inactive: -0.124 | inactive: 0.026 | inactive: -0.017 | inactive: 0.004 | inactive: -0.095
POLR2B (UniProt P30876) | inactive: 0.009 | inactive: -0.048 | inactive: -0.054 | inactive: -0.032 | inactive: 0.001 | inactive: -0.018 | inactive: -0.016 | inactive: 0.046 | inactive: -0.067 | inactive: 0.036
PPA1 (UniProt Q15181) | inactive: -0.013 | inactive: 0.005 | inactive: -0.008 | inactive: 0.178 | inactive: -0.014 | inactive: -0.021 | inactive: 0.015 | inactive: -0.013 | inactive: 0.037 | inactive: -0.077
POP5 (UniProt Q969H6) | inactive: -0.026 | inactive: -0.057 | inactive: 0.005 | inactive: 0.12 | inactive: 0.077 | inactive: -0.11 | inactive: -0.001 | inactive: 0.019 | inactive: -0.039 | inactive: -0.183
PPIA (UniProt P62937) | inactive: 0.007 | inactive: -0.009 | inactive: 0.023 | inactive: 0.02 | inactive: -0.011 | inactive: -0.02 | inactive: 0.051 | inactive: 0.008 | inactive: 0.039 | inactive: -0.019
POLR3B (UniProt Q9NW08) | inactive: -0.014 | inactive: -0.056 | inactive: 0.019 | inactive: 0.019 | inactive: 0.014 | inactive: -0.05 | inactive: -0.014 | inactive: -0.006 | inactive: -0.041 | inactive: -0.033
PPAN isoform 3 (UniProt Q9NQ55) | inactive: 0.002 | inactive: 0.018 | inactive: -0.083 | inactive: -0.078 | inactive: -0.006 | inactive: 0.012 | inactive: -0.039 | inactive: 0.068 | inactive: -0.042 | inactive: 0.099
POLR2A, A0A590UJN4 | inactive: -0.023 | inactive: -0.022 | inactive: -0.042 | inactive: -0.011 | inactive: -0.014 | inactive: -0.034 | inactive: -0.015 | inactive: -0.041 | inactive: -0.034 | inactive: 0.067
PNKD isoform 2 (UniProt Q8N490) | inactive: -0.038 | inactive: 0.012 | inactive: 0.049 | inactive: 0.037 | inactive: 0.007 | inactive: -0.039 | inactive: -0.043 | inactive: 0.03 | inactive: -0.045 | inactive: -0.05
POLR3E (UniProt Q9NVU0) | inactive: -0.014 | inactive: -0.001 | inactive: 0.003 | inactive: -0.001 | inactive: 0.01 | inactive: -0.028 | inactive: -0.011 | inactive: -0.001 | inactive: -0.018 | inactive: 0.013
POFUT1 (UniProt Q9H488) | inactive: 0.058 | inactive: 0.035 | inactive: 0.041 | inactive: 0.02 | inactive: -0.025 | inactive: -0.016 | inactive: -0.004 | inactive: -0.049 | inactive: -0.026 | inactive: -0.019
POTEF (UniProt A5A3E0) | inactive: -0.036 | inactive: 0.041 | inactive: -0.021 | inactive: 0.003 | inactive: -0.017 | inactive: -0.021 | inactive: -0.011 | inactive: 0.003 | inactive: 0.006 | inactive: -0.008
PLIN2 (UniProt Q99541) | inactive: -0.009 | inactive: -0.041 | inactive: -0.038 | inactive: 0.023 | inactive: 0.014 | active: -0.254 | inactive: 0.096 | inactive: -0.003 | inactive: -0.067 | inactive: 0.011
PLEKHM2 (UniProt Q8IWE5) | inactive: -0.066 | inactive: -0.016 | inactive: -0.058 | inactive: -0.002 | inactive: -0.023 | inactive: -0.029 | inactive: -0.007 | inactive: 0.022 | inactive: -0.06 | inactive: 0.015
PNKP (UniProt Q96T60) | inactive: -0.031 | inactive: -0.029 | inactive: -0.025 | inactive: -0.191 | inactive: -0.047 | inactive: 0.131 | inactive: 0 | inactive: 0.027 | inactive: -0.103 | inactive: 0.18

Shown with tabs: part of the list above.
Target	log2 fold change (lapatinib)	log2 fold change (pictilisib)	log2 fold change (crizotinib)	log2 fold change [1]	log2 fold change (duvelisib)	log2 fold change (gandotinib)	log2 fold change (tozasertib)	log2 fold change (doramapimod)	log2 fold change (bafetinib)	log2 fold change [2]
POGK (UniProt Q9P215)	inactive: -0.055	inactive: -0.026	inactive: 0.022	active: -0.384	inactive: 0.01	inactive: 0.095	inactive: -0.101	inactive: 0.111	inactive: -0.109	inactive: 0.142
PPA1 (UniProt Q15181)	inactive: -0.013	inactive: 0.005	inactive: -0.008	inactive: 0.178	inactive: -0.014	inactive: -0.021	inactive: 0.015	inactive: -0.013	inactive: 0.037	inactive: -0.077
